# Laboratory results from PubChem BioAssay AID651640 (Broad Institute, 2012).
# About 6,000 (1.7%) of roughly 350,000 compounds were called active. Inconclusive results, whose numbers are uncertain, are shown with a selection of clear calls. No stated cut-off is given here; in the data, active means CPE inhibition above about 20% (passing the limit was not always enough); inconclusive means no clear call, values can overlap the other calls; tested in BHK-21 cells.
# Test: protection of cells from dengue 2 killing – plate reader, single concentration, primary screen (AID 651640);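 further: 0% = median of neutral control wells and 100% = median of positive control wells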
# Settings: DENV2-infected cells, cytopathic effect rescue, at 9.99 µM, stronger effect = higher value
row,Compound,CPE inhibition
1,Cc1ccc(Nc2ccc(C(=O)O)cc2[N+](=O)[O-])cc1,inactive: 7.07%
2,O=Cc1cc([B-](F)(F)F)cs1,inconclusive: 37%
3,O=C(NNC(=O)c1cc(-c2ccccc2Cl)nc2ccccc12)c1csc(N2CCOCC2)n1,inconclusive: 26.9%
4,CCCc1cc(=O)[nH]c(SCC(=O)Nc2sc3c(c2C(N)=O)CCCC3)n1,inconclusive: 20.2%
5,C[C@@H]1CCCCO[C@H](CN(C)S(=O)(=O)c2cccs2)[C@@H](C)CN([C@@H](C)CO)C(=O)c2cc(NC(=O)Nc3ccc4c(c3)OCO4)ccc2O1,inactive: 2.44%
6,COc1ccccc1NC(=O)Cc1nnc(SCC(=O)NC2CCCCC2)n1C,inconclusive: 39.3%
7,C[C@H]1CN([C@@H](C)CO)C(=O)c2cc(C#Cc3ccc(F)cc3)cnc2O[C@H]1CN(C)S(C)(=O)=O,inconclusive: 22.4%
8,COc1ccc([C@H]2CC(=O)C=C(c3cccc4c3Oc3ccccc3S4)C2)cc1,inconclusive: 20.1%
9,O=C(Nc1ccccc1)N1CCCCN2[C@H](CO)[C@@H](c3ccc(Br)cc3)[C@H]2C1,inactive: 4.72%
10,Cc1ccnc(NC(=O)COC(=O)C23CC4CC(CC(C4)C2)C3)n1,inactive: 5.28%
11,Cc1ccc(C(=O)Nc2ccc(C(=O)N/N=C/c3ccc(C)o3)cc2)cc1,inconclusive: 30.1%
12,Cc1ccc(N(C)S(=O)(=O)c2c(C)noc2/C=C/N(C)C)cc1,inconclusive: 33.2%
13,CC(=O)NCCNc1nc(NCc2cccs2)nc2ccsc12,active: 70.9%
14,Cc1ccc(-c2ccc([C@@H]3[C@H](CO)N4CCCCN(S(=O)(=O)c5ccccc5C)C[C@@H]34)cc2)cc1,inactive: -32.5%
15,CN(CCNC(=O)c1ccc(/C=N/O)nc1)Cc1ccccc1,inconclusive: 39.9%
16,Cc1ccccc1SCCNC(=O)c1ccccc1Br,inconclusive: 35.9%
17,C[C@@H]1CCCCO[C@H](CN(C)C(=O)Cc2ccccc2)[C@H](C)CN([C@@H](C)CO)C(=O)c2cc(NC(=O)Nc3ccc(C(F)(F)F)cc3)ccc2O1,active: 44.2%
18,CCCCn1c(N)c(N(CCC(C)C)C(=O)c2ccc([N+](=O)[O-])s2)c(=O)[nH]c1=O,inconclusive: 37%
19,CC(Oc1ccc(Br)cc1)C(=O)Nc1nc(-c2ccccn2)cs1 (stereo not drawn),inconclusive: 72.1%
20,Oc1cccc(/C=N/N(Cc2ccccc2)c2ccccc2)c1,inactive: -4.34%
21,CCOC(=O)C1CCCCN1S(=O)(=O)c1cc2c(cc1C)NC(=O)CO2 (stereo not drawn),inconclusive: 24.8%
22,O=C(Nc1ccccc1)c1cc2ccc3ccccc3c2s1,inconclusive: 20.3%
23,COc1ccccc1-c1ccc(C2[C@H]3CNC[C@@H]2N3C(=O)Nc2ccccc2F)cc1 (stereo partly drawn),inactive: -4.38%
24,COc1ccc(S(=O)(=O)N(C)C[C@H]2OCc3ccccc3-c3ccccc3C(=O)N([C@H](C)CO)C[C@@H]2C)cc1,inactive: 3.92%
25,CCCN1CCC(=O)N(CCSc2ccc(NC(C)=O)cc2)CC1,inconclusive: 22.6%

row,Compound,CPE inhibition
1,CN(C)c1ccc(C(=O)C=Cc2ccc([N+](=O)[O-])cc2)cc1,inconclusive: 25.6%
2,Cc1ccc(NC(=S)NCCc2ccccc2)nc1,inconclusive: 22.8%
3,c1ccc2c(c1)Nc1cc3ccccc3cc1S2,inconclusive: 42.3%
4,Cc1ccc(C(=O)Nc2ccc(N3CCN(C)CC3)cc2)cc1C,active: 26.8%
5,COc1ccc(-c2ccc3c(c2)[C@@H]2[C@@H](CCN2C(=O)c2cccc(F)c2)[C@H](CO)N3)cc1,inconclusive: 43.7%
6,O=C(NC1CCCC1)[C@H]1[C@H](CO)[C@H]2Cn3c(ccc(-c4cccnc4)c3=O)[C@H]2N1CC1CC1,inactive: -5.46%
7,C[C@@H]1CCCCO[C@H](CN(C)C(=O)Nc2cccc3ccccc23)[C@@H](C)CN([C@@H](C)CO)C(=O)c2cc(NS(=O)(=O)c3cn(C)cn3)ccc2O1,active: 89%
8,O=C(NC(Sc1ccc(Cl)cc1)C(=O)O)c1ccccc1 (stereo not drawn),inconclusive: 41.2%
9,COCCOC(=O)N1C(=O)[C@@]2(c3cc(C#CC4(O)CCCCCC4)ccc31)[C@H](c1ccc(OCCO)cc1)N1[C@H](c3ccccc3)[C@H](c3ccccc3)OC(=O)[C@H]1[C@@H]2C(N)=O,active: 68.9%
10,COc1ccc(Cl)cc1S(=O)(=O)N1CCC(C(=O)NCCC2=CCCCC2)CC1,inconclusive: 52%
11,COc1ccc(-c2ccc3c(c2)O[C@@H](CN(C)Cc2ccccc2C(=O)O)[C@H](C)CN([C@@H](C)CO)S3(=O)=O)cc1,inactive: 10.7%
12,C[C@H](CO)N1C[C@H](C)[C@H](CN(C)C(=O)CCCN(C)C)OCCCC[C@H](C)Oc2ccc(NC(=O)c3ccncc3)cc2C1=O,inconclusive: 72.4%
13,COc1ccc(CN2C3CCC2CC(NC(=O)c2cccc(F)c2)C3)cc1 (stereo not drawn),inconclusive: 25.8%
14,CC(=O)N1CCc2c(sc(NC(=O)C3CC3)c2-c2nc3ccccc3s2)C1,inconclusive: 21.3%
15,C[C@@H]1CCCCO[C@@H](CN(C)C(=O)NC2CCCCC2)[C@H](C)CN([C@@H](C)CO)C(=O)c2cc(NC(=O)Nc3ccccc3)ccc2O1,inconclusive: 28.4%
16,COc1ccc2c3c(n(C)c2c1)[C@H](CO)N(C(=O)c1cccc(F)c1)CC31CCN(C(=O)c2cccc(F)c2)CC1,inactive: 2.41%
17,C[C@@H]1CCCCO[C@@H](CN(C)S(=O)(=O)c2ccc(F)cc2)[C@H](C)CN([C@@H](C)CO)C(=O)c2cc(N(C)C)ccc2O1,inconclusive: 38.7%
18,CC1(c2ccccc2Cl)NC(=O)N(CC(=O)N2CCc3ccccc32)C1=O (stereo not drawn),inconclusive: 48.2%
19,CCOc1cc(/C=N/NC(=O)C(=O)NC2CC2)cc(Br)c1O,active: 46.5%
20,C[C@@H]1CN([C@H](C)CO)C(=O)c2cccc(NC(=O)c3nc4ccccc4s3)c2O[C@H]1CN(C)S(=O)(=O)c1cccs1,inconclusive: 22.3%
21,Cc1sc2ncnc(SCC(=O)Nc3ccc(S(=O)(=O)N4CCOCC4)cc3)c2c1C,inconclusive: 27%
22,COc1ccc2c3c([nH]c2c1)[C@H](CO)N(Cc1nccs1)CC31CN(Cc2cccnc2)C1,inconclusive: 22%
23,C[C@@H]1CN([C@H](C)CO)C(=O)Cc2cc(NC(=O)CCCCCC(=O)Nc3ccccc3N)ccc2O[C@@H]1CN(C)Cc1ccc(Cl)c(Cl)c1,active: 84.2%
24,C[C@H]1CN([C@@H](C)CO)C(=O)Cc2cc(NC(=O)Nc3ccccc3)ccc2O[C@@H]1CN(C)C(=O)NC1CCCCC1,inconclusive: 55.5%
25,O=C(CSc1nnc(Cn2c(=O)sc3ccccc32)n1-c1ccccc1)NCc1ccco1,inactive: 5.81%

# Some of the entries above, reformatted:
row | Compound | CPE inhibition
12 | Cc1ccc(N(C)S(=O)(=O)c2c(C)noc2/C=C/N(C)C)cc1 | inconclusive: 33.2%
13 | CC(=O)NCCNc1nc(NCc2cccs2)nc2ccsc12 | active: 70.9%
14 | Cc1ccc(-c2ccc([C@@H]3[C@H](CO)N4CCCCN(S(=O)(=O)c5ccccc5C)C[C@@H]34)cc2)cc1 | inactive: -32.5%

# Further results.

row,Compound,CPE inhibition
1,CCC1=C(OC(=O)N(CC)CC)N2C(=O)OC(=NCC(=O)OC)[C@]2(Cc2ccccc2)[C@H]2C1=CC[C@H]1C(=O)NC(=O)[C@H]12,active: 23.3%
2,CN(C)CC(=O)Nc1ccc2c(c1)[C@H]1C[C@@H](CC(=O)NCc3ccccn3)O[C@H](CO)[C@H]1O2,inconclusive: 26.9%
3,O=S1(=O)C[C@@H](N2CCC[C@@H]2CO)[C@H](COCc2ccccc2)N1,inconclusive: 55.3%
4,Cc1cc(C)c(C#N)c(SCC(=O)Nc2ccc(S(=O)(=O)Nc3ncccn3)cc2)n1,inconclusive: 47.2%
5,C[C@@H]1CN([C@H](C)CO)C(=O)c2cc(/C=C/c3ccccc3)cnc2O[C@H]1CN(C)C(=O)c1cccnc1,inconclusive: 38.4%
6,CO[C@H]1CN(C)C(=O)c2cc(NC(=O)c3ccno3)ccc2OC[C@@H](C)NC[C@@H]1C,inactive: -5.51%
7,COc1cccc(CC(=O)OCC(=O)Nc2nnc(-c3ccccc3)o2)c1,active: 103%
8,CCCNC(=O)N(C)C[C@@H]1Oc2ncc(-c3ccc(C(=O)N(C)C)cc3)cc2C(=O)N([C@@H](C)CO)C[C@@H]1C,inconclusive: 12.7%
9,C[C@@H]1CCCCO[C@H](CN(C)S(=O)(=O)c2cccs2)[C@H](C)CN([C@@H](C)CO)C(=O)c2cc(NC(=O)Nc3ccccc3)ccc2O1,inactive: -5.3%
10,Cc1ccc(NC(=O)CSc2nccn2Cc2ccco2)cc1,inconclusive: 22%
11,O=C(Nc1ccncc1)c1ccc(Cl)c([N+](=O)[O-])c1,inconclusive: 26.1%
12,CC1CCCC(CC(=O)O)(CC(=O)O)C1 (stereo not drawn),inconclusive: 49.5%
13,CC(C(=O)OCC(=O)N(C)C1(C#N)CCCCC1)N1C(=O)c2ccccc2C1=O (stereo not drawn),inconclusive: 36.1%
14,CSCCC(NC(=O)c1ccco1)C(=O)NNC(=O)c1n[nH]c(=O)c2ccccc12 (stereo not drawn),inconclusive: 20.8%
15,O=C(Nc1ccc(F)cc1)C1CC(=O)n2ncnc2N1 (stereo not drawn),inactive: 3.36%
16,COc1ccc(S(=O)(=O)Nc2ccc3c(c2)C(=O)N([C@H](C)CO)C[C@@H](C)[C@@H](CN(C)S(=O)(=O)c2cccs2)OCCCC[C@H](C)O3)cc1,inactive: -5%
17,CSCCC(NS(=O)(=O)c1ccc2c(c1)oc(=O)n2C)C(=O)NC1CCCCC1 (stereo not drawn),inconclusive: 48.4%
18,COc1ccc(S(=O)(=O)N2CCCCCC2)cc1C(=O)Nc1cccc(C)n1,inconclusive: 31.4%
19,O=[N+]([O-])c1ccc(Nc2ccccc2O)c2nonc12,inconclusive: 24.7%
20,CCOc1ccc(OCCNC(=O)c2cc(C3CC3)nc3c2cnn3C(C)C)cc1,inconclusive: 84.9%
21,Cc1nn(CC(=O)c2cccc(Cl)c2)c(C)c1[N+](=O)[O-],inactive: 2.67%
22,Cc1cccc(CCN(CC(=O)NCc2ccc(F)cc2)C(=O)c2csnn2)c1,inconclusive: 28.9%
23,N#CC(c1c(Cl)cccc1N1CCCCC1)N1CCCCC1 (stereo not drawn),inconclusive: 23.3%
